Data source: PubChem BioAssay AID1224831 (NIAID, 2016)
Test: 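Retesting screen hits on the TLR4-driven TNF response with six separate siRNAs each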 (follow-up of hits). Cell system: human THP-1 B5 monocytic leukaemia cells carrying a TNF promoter luciferase reporter, made macrophage-like with PMA. Reagent: single siRNA against human genes, 50 nM. Duration: about 68 h of knock-down, then 4 h LPS. Challenge: LPS (Salmonella minnesota, TLR-grade) at 10 ng/ml for 4 h; PMA 5 ng/ml present during knock-down. Detection: 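Firefly to renilla luciferase ratio of a TNF promoter reporter after 4 h LPS, scaled to plate median, turned into robust z-score, averaged over replicates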. Scale: TNF reporter z-score: higher = stronger LPS-induced TNF reporter signal; z-score, median over gene's siRNAs: higher = stronger TNF reporter signal across the gene's siRNAs. Active means: 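Two-sided call: reduced or raised TNF reporter signal counts as active once mean z reaches about -1 or below, or about 1.5 or above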. Meaning of the calls: active = changed TNF reporter (either direction); inactive = little change.
Shown is one part, drawn at random, of about 3,500 deposited reagents. 731 of them (21%) count as active. 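Active means either lowered or raised reporter signal; the gene-median score did not drive the per-siRNA calls.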 Unmarked entries are inactive. Reagent sequences are not shown.

gene knocked down	PubChem SID	TNF reporter z-score, replicate mean	z-score, median over gene's siRNAs
PDCD2 (GeneID 5134)	SID315482652	-0.58	-0.3
PDCD2 (GeneID 5134)	SID315482653	-0.02	-0.3
PDCD2 (GeneID 5134)	SID315482654	0.41	-0.3
PDCD2 (GeneID 5134)	SID315482655	-1.16 (active)	-0.3
PDCD2 (GeneID 5134)	SID315482656	0.82	-0.3
PDCD2 (GeneID 5134)	SID315482657	-1.3 (active)	-0.3
BTG4 (GeneID 54766)	SID315485745	-1.18 (active)	0.09
BTG4 (GeneID 54766)	SID315485746	0.39	0.09
BTG4 (GeneID 54766)	SID315485747	0.16	0.09
BTG4 (GeneID 54766)	SID315485748	-0.61	0.09
BTG4 (GeneID 54766)	SID315485749	0.22	0.09
BTG4 (GeneID 54766)	SID315485750	0.02	0.09
ABT1 (GeneID 29777)	SID315485445	-0.75	-0.9
ABT1 (GeneID 29777)	SID315485446	-0.57	-0.9
ABT1 (GeneID 29777)	SID315485447	-1.69 (active)	-0.9
ABT1 (GeneID 29777)	SID315485448	-1.69 (active)	-0.9
ABT1 (GeneID 29777)	SID315485449	-0.79	-0.9
ABT1 (GeneID 29777)	SID315485450	-1.01 (active)	-0.9
UBL5 (GeneID 59286)	SID315486201	-1.43 (active)	-1.35
UBL5 (GeneID 59286)	SID315486202	-1.37 (active)	-1.35
UBL5 (GeneID 59286)	SID315486203	-1.9 (active)	-1.35
UBL5 (GeneID 59286)	SID315486204	-0.27	-1.35
UBL5 (GeneID 59286)	SID315486205	-0.96	-1.35
UBL5 (GeneID 59286)	SID315486206	-1.33 (active)	-1.35
GATA3 (GeneID 2625)	SID315482346	0.33	-0.345
GATA3 (GeneID 2625)	SID315482347	-0.88	-0.345
GATA3 (GeneID 2625)	SID315482348	-0.25	-0.345
GATA3 (GeneID 2625)	SID315482349	-0.47	-0.345
GATA3 (GeneID 2625)	SID315482350	0.27	-0.345
GATA3 (GeneID 2625)	SID315482351	-0.44	-0.345

Hits, among the entries above:
gene knocked down	PubChem SID	TNF reporter z-score, replicate mean	z-score, median over gene's siRNAs
PDCD2 (GeneID 5134)	SID315482655	-1.16 (active)	-0.3
PDCD2 (GeneID 5134)	SID315482657	-1.3 (active)	-0.3
BTG4 (GeneID 54766)	SID315485745	-1.18 (active)	0.09
ABT1 (GeneID 29777)	SID315485447	-1.69 (active)	-0.9
ABT1 (GeneID 29777)	SID315485448	-1.69 (active)	-0.9
ABT1 (GeneID 29777)	SID315485450	-1.01 (active)	-0.9
UBL5 (GeneID 59286)	SID315486201	-1.43 (active)	-1.35
UBL5 (GeneID 59286)	SID315486202	-1.37 (active)	-1.35
UBL5 (GeneID 59286)	SID315486203	-1.9 (active)	-1.35
UBL5 (GeneID 59286)	SID315486206	-1.33 (active)	-1.35

Next results follow.
gene knocked down	PubChem SID	TNF reporter z-score, replicate mean	z-score, median over gene's siRNAs
RNF214 (GeneID 257160)	SID315488568	-0.1	0.045
RNF214 (GeneID 257160)	SID315488569	-1.33 (active)	0.045
RNF214 (GeneID 257160)	SID315488570	0.68	0.045
RNF214 (GeneID 257160)	SID315488571	1.72 (active)	0.045
RNF214 (GeneID 257160)	SID315488572	0.19	0.045
RNF214 (GeneID 257160)	SID315488573	-0.24	0.045
MSL3 (GeneID 10943)	SID315483528	0.24	0.32
MSL3 (GeneID 10943)	SID315483529	0.75	0.32
MSL3 (GeneID 10943)	SID315483530	-1.03 (active)	0.32
MSL3 (GeneID 10943)	SID315483531	0.2	0.32
MSL3 (GeneID 10943)	SID315483532	0.4	0.32
MSL3 (GeneID 10943)	SID315483533	3.08 (active)	0.32
UBE3D (GeneID 90025)	SID315487227	-0.42	-0.235
UBE3D (GeneID 90025)	SID315487228	-0.77	-0.235
UBE3D (GeneID 90025)	SID315487229	-1.53 (active)	-0.235
UBE3D (GeneID 90025)	SID315487230	0.25	-0.235
UBE3D (GeneID 90025)	SID315487231	-0.05	-0.235
UBE3D (GeneID 90025)	SID315487232	0.22	-0.235
TMED4 (GeneID 222068)	SID315488232	-0.53	-0.635
TMED4 (GeneID 222068)	SID315488233	1.16	-0.635
TMED4 (GeneID 222068)	SID315488234	-1.25 (active)	-0.635
TMED4 (GeneID 222068)	SID315488235	-0.74	-0.635
TMED4 (GeneID 222068)	SID315488236	-1.31 (active)	-0.635
TMED4 (GeneID 222068)	SID315488237	2.51 (active)	-0.635
TMSB4XP8 (GeneID 7117)	SID315482970	2.95 (active)	0.13
TMSB4XP8 (GeneID 7117)	SID315482971	-1.33 (active)	0.13
TMSB4XP8 (GeneID 7117)	SID315482972	0.95	0.13
TMSB4XP8 (GeneID 7117)	SID315482973	-0.23	0.13
TMSB4XP8 (GeneID 7117)	SID315482974	-1.12 (active)	0.13
TMSB4XP8 (GeneID 7117)	SID315482975	0.49	0.13
R3HDM1 (GeneID 23518)	SID315485208	0.15	0.08
R3HDM1 (GeneID 23518)	SID315485209	0.6	0.08
R3HDM1 (GeneID 23518)	SID315485210	-0.64	0.08
R3HDM1 (GeneID 23518)	SID315485211	0.01	0.08
R3HDM1 (GeneID 23518)	SID315485212	-0.49	0.08
R3HDM1 (GeneID 23518)	SID315485213	0.75	0.08
SLC20A2 (GeneID 6575)	SID315482874	3.13 (active)	0.26
SLC20A2 (GeneID 6575)	SID315482875	0.05	0.26
SLC20A2 (GeneID 6575)	SID315482876	0.3	0.26
SLC20A2 (GeneID 6575)	SID315482877	0.41	0.26
SLC20A2 (GeneID 6575)	SID315482878	-0.29	0.26
SLC20A2 (GeneID 6575)	SID315482879	0.22	0.26
HNRNPA2B1 (GeneID 3181)	SID315482448	0.95	0.65
HNRNPA2B1 (GeneID 3181)	SID315482449	1.14	0.65
HNRNPA2B1 (GeneID 3181)	SID315482450	1.13	0.65
HNRNPA2B1 (GeneID 3181)	SID315482451	-0.43	0.65
HNRNPA2B1 (GeneID 3181)	SID315482452	0.35	0.65
HNRNPA2B1 (GeneID 3181)	SID315482453	-0.33	0.65
SMC3 (GeneID 9126)	SID315483216	-0.66	-0.63
SMC3 (GeneID 9126)	SID315483217	-0.54	-0.63
SMC3 (GeneID 9126)	SID315483218	-0.6	-0.63
SMC3 (GeneID 9126)	SID315483219	-1.09 (active)	-0.63
SMC3 (GeneID 9126)	SID315483220	-1.11 (active)	-0.63
SMC3 (GeneID 9126)	SID315483221	0.07	-0.63
